# Experimental data as given in the supplement of paper PMC8728848.
# The other results are listed elsewhere or left out.
# B1: DC-Sign-R (Homo sapiens), Q9H2X3 (protein)
# chain: MSDSKEPRVQQLGLLEEDPTTSGIRLFPRDFQFQQIHGHKSSTGCLGHGALVLQLLSFMLLAGVLVAILVQVSKVPSSLSQEQSEQDAIYQNLTQLKAAVGELSEKSKLQEIYQELTQLKAAVGELPEKSKLQEIYQELTRLKAAVGELPEKSKLQEIYQELTRLKAAVGELPEKSKLQEIYQELTRLKAAVGELPEKSKLQEIYQELTELKAAVGELPEKSKLQEIYQELTQLKAAVGELPDQSKQQQIYQELTDLKTAFERLCRHCPKDWTFFQGNCYFMSNSQRNWHDSVTACQEVRAQLVVIKTAEEQNFLQLQTSRSNRFSWMGLSDLNQEGTWQWVDGSPLSPSFQRYWNSGEPNNSGNEDCAEFSGSGWNDNRCDVDNYWICKKPAACFRDE
# How the values were obtained:
# Assay in all cases: glycan array binding signal (z-score within array); higher = stronger binding
# Details in all cases: glycan notation: IUPAC condensed, linker removed
# GalNAc(b1-4)GlcNAc = molecular target: GalNAc(b1-4)GlcNAc
# In short: (§1)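 The binding signal is a Z-score computed within each array. Data were drawn from 3228 arrays in the Consortium for Functional Glycomics database, restricted to those with a known protein sequence. Scores were averaged over arrays of the same protein sequence at different concentrations or buffers, and over linkers, and negative values can be taken as non-binding.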
# [1] = molecular target: GalNAc(b1-4)GlcNAc(b1-2)Man
# In short: as §1
# [2] = molecular target: GalNAc(b1-4)GlcNAc(b1-2)Man(a1-3)[GalNAc(b1-4)GlcNAc(b1-2)Man(a1-6)]Man(b1-4)GlcNAc(b1-4)GlcNAc
# In short: as §1
# [3] = molecular target: GalNAc(b1-4)GlcNAc(b1-3)GalNAc(b1-4)GlcNAc
# In short: as §1
# GalNAc(b1-4)GlcNAc6S = molecular target: GalNAc(b1-4)GlcNAc6S
# In short: as §1
# GalNAc(b1-6)GalNAc = molecular target: GalNAc(b1-6)GalNAc
# In short: as §1
# GalNAc3S(b1-4)GlcNAc = molecular target: GalNAc3S(b1-4)GlcNAc
# In short: as §1
# GalNAc3S(b1-4)GlcNAc3S = molecular target: GalNAc3S(b1-4)GlcNAc3S
# In short: as §1
# [4] = molecular target: GalNAc3S(b1-4)[Fuc(a1-3)]GlcNAc
# In short: as §1
# GalNAc4S6S(b1-4)GlcNAc = molecular target: GalNAc4S6S(b1-4)GlcNAc
# In short: as §1
# GalNAc6S(b1-4)GlcNAc = molecular target: GalNAc6S(b1-4)GlcNAc
# In short: as §1
# Glc(a1-4)Glc = molecular target: Glc(a1-4)Glc
# In short: as §1
# [5] = molecular target: Glc(a1-4)Glc(a1-4)Glc(a1-4)Glc
# In short: as §1
# Glc(a1-6)Glc(a1-6)Glc = molecular target: Glc(a1-6)Glc(a1-6)Glc
# In short: as §1
# [6] = molecular target: Glc(a1-6)Glc(a1-6)Glc(a1-6)Glc
# In short: as §1
# Glc(b1-4)Glc = molecular target: Glc(b1-4)Glc
# In short: as §1
# Glc(b1-6)Glc = molecular target: Glc(b1-6)Glc
# In short: as §1
# GlcA(b1-3)Gal = molecular target: GlcA(b1-3)Gal
# In short: as §1
# GlcA(b1-3)GlcNAc = molecular target: GlcA(b1-3)GlcNAc
# In short: as §1
# GlcA(b1-6)Gal = molecular target: GlcA(b1-6)Gal
# In short: as §1
# [7] = molecular target: GlcA3S(b1-3)Gal(b1-4)GlcNAc(b1-2)Man
# In short: as §1
# [8] = molecular target: GlcA3S(b1-3)Gal(b1-4)GlcNAc(b1-3)Gal(b1-4)Glc
# In short: as §1
# [9] = molecular target: GlcNAc(a1-3)Gal(b1-4)GlcNAc
# In short: as §1
# [10] = molecular target: GlcNAc(a1-4)Gal(b1-3)GlcNAc
# In short: as §1
# [11] = molecular target: GlcNAc(a1-4)Gal(b1-4)GalNAc
# In short: as §1
# [12] = molecular target: GlcNAc(a1-4)Gal(b1-4)GlcNAc
# In short: as §1
# [13] = molecular target: GlcNAc(a1-4)Gal(b1-4)GlcNAc(b1-3)Gal(b1-4)Glc
# In short: as §1
# [14] = molecular target: GlcNAc(a1-4)Gal(b1-4)GlcNAc(b1-3)Gal(b1-4)GlcNAc
# In short: as §1
# [15] = molecular target: GlcNAc(a1-4)Gal(b1-4)GlcNAc(b1-3)Gal(b1-4)GlcNAc(b1-3)Gal(b1-4)GlcNAc
# In short: as §1
# [16] = molecular target: GlcNAc(a1-4)Gal(b1-4)GlcNAc(b1-3)Gal(b1-4)[Fuc(a1-3)]GlcNAc(b1-3)Gal(b1-4)[Fuc(a1-3)]GlcNAc
# In short: as §1
# [17] = molecular target: GlcNAc(a1-6)Gal(b1-4)GlcNAc
# In short: as §1
# [18] = molecular target: GlcNAc(b1-2)Gal(b1-3)GalNAc
# In short: as §1
# [19] = molecular target: GlcNAc(b1-2)Man(a1-3)[GlcNAc(b1-2)Man(a1-6)]Man(b1-4)GlcNAc(b1-4)GlcNAc
# In short: as §1
# [20] = molecular target: GlcNAc(b1-2)Man(a1-3)[GlcNAc(b1-2)Man(a1-6)]Man(b1-4)GlcNAc(b1-4)[Fuc(a1-6)]GlcNAc
# In short: as §1
# [21] = molecular target: GlcNAc(b1-2)Man(a1-3)[GlcNAc(b1-4)][GlcNAc(b1-2)Man(a1-6)]Man(b1-4)GlcNAc(b1-4)GlcNAc
# In short: as §1
# [22] = molecular target: GlcNAc(b1-2)Man(a1-3)[GlcNAc(b1-4)][GlcNAc(b1-2)Man(a1-6)]Man(b1-4)GlcNAc(b1-4)[Fuc(a1-6)]GlcNAc
# In short: as §1
# [23] = molecular target: GlcNAc(b1-2)[GlcNAc(b1-4)]Man(a1-3)[GlcNAc(b1-2)Man(a1-6)]Man(b1-4)GlcNAc(b1-4)GlcNAc
# In short: as §1
binder,measurement,setting,value
B1,glycan array binding signal (z-score),GalNAc(b1-4)GlcNAc,-0.254
same,glycan array binding signal (z-score),[1],-0.095
same,glycan array binding signal (z-score),[2],0.122
same,glycan array binding signal (z-score),[3],1.46
same,glycan array binding signal (z-score),GalNAc(b1-4)GlcNAc6S,0.725
same,glycan array binding signal (z-score),GalNAc(b1-6)GalNAc,0.447
same,glycan array binding signal (z-score),GalNAc3S(b1-4)GlcNAc,1.28
same,glycan array binding signal (z-score),GalNAc3S(b1-4)GlcNAc3S,0.277
same,glycan array binding signal (z-score),[4],-0.794
same,glycan array binding signal (z-score),GalNAc4S6S(b1-4)GlcNAc,-0.634
same,glycan array binding signal (z-score),GalNAc6S(b1-4)GlcNAc,1.19
same,glycan array binding signal (z-score),Glc(a1-4)Glc,-0.446
same,glycan array binding signal (z-score),[5],-0.785
same,glycan array binding signal (z-score),Glc(a1-6)Glc(a1-6)Glc,-0.104
same,glycan array binding signal (z-score),[6],-0.353
same,glycan array binding signal (z-score),Glc(b1-4)Glc,-0.525
same,glycan array binding signal (z-score),Glc(b1-6)Glc,-0.1
same,glycan array binding signal (z-score),GlcA(b1-3)Gal,-0.815
same,glycan array binding signal (z-score),GlcA(b1-3)GlcNAc,-0.63
same,glycan array binding signal (z-score),GlcA(b1-6)Gal,-0.71
same,glycan array binding signal (z-score),[7],-0.485
same,glycan array binding signal (z-score),[8],0.36
same,glycan array binding signal (z-score),[9],0.698
same,glycan array binding signal (z-score),[10],0.49
same,glycan array binding signal (z-score),[11],-0.357
same,glycan array binding signal (z-score),[12],-0.325
same,glycan array binding signal (z-score),[13],-0.556
same,glycan array binding signal (z-score),[14],-0.616
same,glycan array binding signal (z-score),[15],-0.21
same,glycan array binding signal (z-score),[16],0.712
same,glycan array binding signal (z-score),[17],1.41
same,glycan array binding signal (z-score),[18],0.112
same,glycan array binding signal (z-score),[19],0.112
same,glycan array binding signal (z-score),[20],0.846
same,glycan array binding signal (z-score),[21],0.048
same,glycan array binding signal (z-score),[22],0.246
same,glycan array binding signal (z-score),[23],-0.664

# A section of the results above, as a working copy:
binder,measurement,setting,value
B1,glycan array binding signal (z-score),[13],-0.556
same,glycan array binding signal (z-score),[14],-0.616
